Experimental findings from patent US9622495B2, “Methods to decontaminate cereal grains with chlorine dioxide” (Diversey, Inc., priority 2011, dated 2017) are described below.

The nature of this data set: Chlorine dioxide residue measurement on treated barley.

Structures are written as SMILES.

In the case of `[O][Cl+][O-]` [ClO2, chlorine dioxide], for the setting “1 g barley washed with 10 ml deionised water after draining the steeping solution”, the “Chlorine dioxide in the wash solution of treated barley” value is “less than 0.2 ppm”. Moreover, the “Chlorine dioxide in malted barley from the treated batch” value (malted barley, data not shown) was “free of chlorine dioxide”.
